Data: patent publication US10925854B2, “Methods and compositions for preventing or treating fatty liver, protecting liver function or ameliorating liver diseases caused by fatty liver or other associated disorders” (SINEW PHARMA INC., priority 2015, dated 2021)
At least one compound was matched to its structure with a doubt left.

How the values were obtained:
Format in all cases: in vivo
[1] = system: B6 mice fed with high fat feed (fatty liver); assay: Serum ALT and AST (liver dysfunction) in mice with induced fatty liver
Protocol: (§1) B6 mice recommended in the specification “Method for evaluating the liver protection and health care efficacies of health food” announced by the Department of Health were chosen for animal testing. More than four (4) mice were used in each group of the pre-test, while more than twelve (12) mice were used in each group of the confirmatory test. Male mice bred at 23±2° C. in an animal room with 55±15% relative humidity under normal light/dark cycle (7:00 AM-7:00 PM lights on/7:00 PM-7:00 AM lights off) and weighing 18-23 g were purchased from BioLASCO (Taipei) and housed at Laboratory Animal Center in National Defense Medical Center. The animal test was carried out according to the guideline for animal experiment of National Health Research Institutes. Mice were fed with normal feed at 3-5 g/day and unlimited supply of water for 1-2 weeks and investigated for health condition. The weight of mice was recorded once a week. […]
Before testing and in the eighth (8th), twelfth (12th), and sixteenth (16th) week after testing, blood was collected from the cheek or the heart. […] Afterwards, biochemical indices of liver function, including aspartate transaminase (AST), alanine aminotransferase (ALT), triglyceride (TG), total cholesterol (TCHO/TC), low-density lipoprotein cholesterol (LDL-C), and high-density lipoprotein cholesterol (HDL-C), were detected by the automatic blood biochemistry analyzer.

[2] = system: B6 mice fed with high fat feed (fatty liver); assay: Liver antioxidant capacity (Gpx, GSH, Grd, SOD) in mice with induced fatty liver
Protocol: B6 mice recommended in the specification “Method for evaluating the liver protection and health care efficacies of health food” announced by the Department of Health were chosen for animal testing. More than four (4) mice were used in each group of the pre-test, while more than twelve (12) mice were used in each group of the confirmatory test. Male mice bred at 23±2° C. in an animal room with 55±15% relative humidity under normal light/dark cycle (7:00 AM-7:00 PM lights on/7:00 PM-7:00 AM lights off) and weighing 18-23 g were purchased from BioLASCO (Taipei) and housed at Laboratory Animal Center in National Defense Medical Center. The animal test was carried out according to the guideline for animal experiment of National Health Research Institutes. Mice were fed with normal feed at 3-5 g/day and unlimited supply of water for 1-2 weeks and investigated for health condition. The weight of mice was recorded once a week.
The tested animals were grouped randomly into Blank, High Fat Diet control (HFD), Positive Control (PS), and Test group. The animals of Blank were fed with normal feed. The animals of HFD were fed with high fat feed. The animals of PS were fed with high fat feed, and additionally fed with silymarin (5 mg/kg/day) by a tube. The animals of Test group were fed with high fat feed, and additionally force-fed with test compounds by a tube. […]

[3] = system: B6 mice fed with high fat feed (fatty liver); assay: Liver lipids (TG, TC in liver) in mice with induced fatty liver
Protocol: as §1
In addition, abdominal fat and liver specimens were taken from the abdomens of sacrificed mice and weighted to compare the weight of fat and liver and obtain a ratio of liver weight to body weight. […] Furthermore, the liver function of animals of each group were analyzed by Galactose Single Point Method, which was recognized and recommended for quantification of remaining liver function in clinical use by U.S. FDA and Ministry of Health and Welfare, Taiwan. […]

## O=C(CCc1ccc(O)cc1)c1c(O)cc(O)cc1O[C@@H]1O[C@H](CO)[C@@H](O)[C@H](O)[C@H]1O [phloridzin]
[1]
  effect on ALT and AST values (in words): can significantly reduce ALT and AST values
[2]
  effect on liver antioxidant activity (in words): can significantly enhance antioxidant activity
[3]
  effect on TC in liver (in words): reduces TC in liver significantly
  effect on TG in liver (in words): reduces TG in liver significantly
